The target in this test is serine/threonine protein kinase ARAF (v-raf murine sarcoma 3611 viral oncogene homolog) (human (endogenous in liver cancer cells)) (UniProt P10398). Description: co-IP; co-immunoprecipitation with anti-ARAF, Western blot; liver cancer cells of the rLV group and the rLV-CARM1 (CARM1 overexpressing) group compared.

Results are given in words; binding and its absence hold for the method and conditions named. Binding seen in cells or lysates may run through a third protein. A result given as binding can be weak or reduced; the word gives no strength.

Turning to “GADD45 (human (endogenous in liver cancer cells))”, the binding result is “binds”.

The record behind these values is paper PMC11480952.
